The record followed here is the supplement of paper PMC12889115.

The assay concerns Salmonella enterica serovar Typhimurium SL1344. In words: bacterial growth OD600 after 18 h with compound and polymyxin B; higher = more bacterial growth (less inhibition). Particulars: 50 µM, Mueller-Hinton broth.

The other results are listed elsewhere or left out. These are raw signals, not scaled to a control.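 First-pass screen: polymyxin B was added at a level that permeabilizes the Salmonella outer membrane while sparing the inner membrane. DMSO wells, with and without polymyxin B, defined maximum growth. Because plates differed from one another, each plate's data were ranked separately and the compounds with the lowest OD600 were carried forward as hits.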

Take `CCN(CC)CCN(CC)C(=O)Cn1nnnc1CN1CCOCC1`: the “bacterial growth OD600” value (polymyxin B 0.75 µg/mL) was 0.964. Regarding `COc1cc(CC2(CCC(=O)NCc3cnn(Cc4ccccc4)c3)CCC(=O)N2)ccc1F` (stereo not given), the “bacterial growth OD600” value (polymyxin B 0.75 µg/mL) is 0.983. Consider `O=C(NCc1cccc(F)c1F)C1CCC(=O)N(CCc2cccc(F)c2)C1` (stereo not given), for which, for the setting “polymyxin B 1 µg/mL”, the “bacterial growth OD600” value came to 0.817. For the molecule `COc1cccc(C(C)N(C)Cc2nc(-c3ccc(Cl)cc3)oc2C)c1` (stereo not given), where the note is “polymyxin B 1 µg/mL”, the “bacterial growth OD600” value turned out to be 0.351. In the case of `CN1CCN(c2ncccc2CNC(=O)[C@@H]2C[C@H]2c2ccccc2)CC1`, the “bacterial growth OD600” value (polymyxin B 0.75 µg/mL) was 0.952. Regarding `Cc1ccccc1N1CCN(C2CCCN(Cc3cccc4nonc34)C2)CC1` (stereo not given), under “polymyxin B 1 µg/mL”, the “bacterial growth OD600” value turned out to be 0.968. Take `CC(=O)NCC(=O)N1CCCC(CCc2cccc(F)c2)C1` (stereo not given): the “bacterial growth OD600” value (polymyxin B 0.75 µg/mL) came to 0.996.

For the molecule `CCOC(=O)C1(Cc2ccc(Cl)cc2)CCN(C(=O)CCC2(C)CC2)CC1`, the “bacterial growth OD600” value (polymyxin B 1 µg/mL) came to 0.836. Still for that read-out and setting: the same measure for `COc1cccc(CCNC(=O)c2cn(CC3CCCO3)nn2)c1OC` (stereo not given): 0.796. As to `COc1ccc(CNC(=O)CCC2CCCN(Cc3ccc(O)c(OC)c3)C2)c(OC)c1` (stereo not given), for the setting “polymyxin B 0.75 µg/mL”, the “bacterial growth OD600” value worked out at 0.798. With `O=C(NC1CC(=O)N(Cc2cccc(F)c2)C1)c1ccccn1` (stereo not given), the “bacterial growth OD600” value (polymyxin B 1 µg/mL) was found to be 0.842. Consider `Cc1nn(C)c(C)c1S(=O)(=O)N1CCCC(CNC(=O)c2ccc3c(c2)OCO3)C1` (stereo not given), for which the “bacterial growth OD600” value (polymyxin B 1 µg/mL) was 0.981. Regarding `Cc1nc(N2CCCC2C(=O)NCCc2ccccc2F)nc2ccccc12` (stereo not given), under “polymyxin B 0.75 µg/mL”, the “bacterial growth OD600” value amounted to 0.647. As to `CCCCN(Cc1ccccc1)Cc1nc(-c2ccc(C(=O)OC)cc2)no1`, the “bacterial growth OD600” value (polymyxin B 1 µg/mL) was found to be 1.02. With `CCCCNC(=O)C1CC(=O)c2sc(NC(=O)C3CCC3)nc2C1` (stereo not given), where the note is “polymyxin B 0.75 µg/mL”, the “bacterial growth OD600” value was 0.842. With `O=C(CCC(F)(F)F)N(CC1CCN(Cc2ccccc2F)CC1)CC1CCCO1` (stereo not given), the “bacterial growth OD600” value (polymyxin B 1 µg/mL) stood at 0.917. As for `CCOC(=O)C1(CCCc2ccccc2)CCCN(C(=O)c2coc3c2C(=O)CCC3)C1` (stereo not given), for the setting “polymyxin B 1 µg/mL”, the “bacterial growth OD600” value came to 0.006. As to `CN(Cc1nc(-c2ccc3c(c2)OCO3)no1)C1CC(C)(C)NC(C)(C)C1`, the “bacterial growth OD600” value (polymyxin B 1 µg/mL) amounted to 0.903. As to `COCCN1C(=O)CC(CC(=O)N2CC3CC4CC(C3)CC2C4)(c2ccccc2F)C1=O` (stereo not given), the “bacterial growth OD600” value (polymyxin B 0.75 µg/mL) was 0.758. On to `Cc1nc(N2CCC(C(=O)NC(C)(C)C)CC2)nc2ccccc12`, for which the “bacterial growth OD600” value (polymyxin B 0.75 µg/mL) came out at 0.963.
